Measured values as given in the supplement of paper PMC5949888.
± gives the standard deviation of the averaged measurements. Most values lie at the floor of the assay. Slopes are relative: functional sequences can read slightly below zero.

System: Saccharomyces cerevisiae PS128 hsf1 delta, HSF1(1-493) fusion
Assay: growth estimate (transactivation domain function in HSF1 fusion, heat-shock survival) (a.u. (slope of normalised read count over time)); higher = stronger growth at 37°C, i.e. more transactivation activity
Details: library: random library

Row | Substance | growth estimate
1 | LRGVPAHSQALRSSAVVTLY | < -0.25
2 | LRGVRGRSQGSNRAGFAAFG | < -0.25
3 | LRHGQGLRMTQAWFCRLFPK | < -0.25
4 | LRIC | < -0.25
5 | LRIPLFQHRGWNCAWGPPPF | -0.243
6 | LRKDAIQPF | < -0.25
7 | LRKKLQSI | < -0.25
8 | LRKSILVIGVAHFYPVWGIA | < -0.25
9 | LRKVEIYGLARLRQHAVTWW | < -0.25
10 | LRLDTG | < -0.25
11 | LRLFEYFEGIFFLRGSR | < -0.25
12 | LRLFVLRSGSR | < -0.25
13 | LRLGLVGLRSEIEGITSRRA | < -0.25
14 | LRLSWVGVSLPSSQTTIMLT | < -0.25
15 | LRLWFDPFFYS | -0.102
16 | LRMCAESRTATSSTGQLAIY | < -0.25
17 | LRNGLL | < -0.25
18 | LRNLCCGCSTSVSGGSWRKA | -0.245
19 | LRNVETRARHNTHGTGSSRT | < -0.25
20 | LRPAALPDTNRPTALPAARS | < -0.25
21 | LRPDDIRSDYPGRSKTNQYT | < -0.25
22 | LRPLFASNTSGFGDIWFDLR | 0.304
23 | LRQ | -0.247 ± 0.0037
24 | LRQECYPVRSLT | < -0.25
25 | LRQLSRAYNEVV | < -0.25

Row | Substance | growth estimate
26 | LRREK | < -0.25
27 | LRREKGVCPEKYLQNPLALH | < -0.25
28 | LRRKSIKRGPGLIWSRYHGL | -0.246
29 | LRRNRYTIKSKFTQPSE | < -0.25
30 | LRRRCMIEGAF | < -0.25
31 | LRRRMTV | < -0.25
32 | LRRVENASYRNSRYARALWI | < -0.25
33 | LRSGRPVATGVLLISHHTSV | < -0.25
34 | LRSGWLLICLHSISGGIPRE | < -0.25
35 | LRSLRKV | < -0.25
36 | LRSM | < -0.25
37 | LRSPATEST | -0.246
38 | LRSQCVVKSWERNQGPQHGA | < -0.25
39 | LRSRGSSFTVS | < -0.25
40 | LRSSSSQR | < -0.25
41 | LRSTI | < -0.25
42 | LRSTL | < -0.25
43 | LRSTTLAGMVLLQSF | < -0.25
44 | LRSVWTSAIARPVYAMIAAV | < -0.25
45 | LRTCTKRNRVAKQLAILKSK | < -0.25
46 | LRTIEKQHPENLSVRQVVLP | < -0.25
47 | LRTLI | < -0.25
48 | LRTLILHVGACPGMGKPSLV | < -0.25
49 | LRTMGGRASDPARSLM | < -0.25
50 | LRTRPSLDA | < -0.25

Row | Substance | growth estimate
51 | LRTSARRQYGVELVIRY | < -0.25
52 | LRVLRP | < -0.25
53 | LRVMSVATV | < -0.25
54 | LRVTIYRKGVTPLALR | < -0.25
55 | LRYYCP | < -0.25
56 | LSADRDMKRGVNCSNEIIGG | < -0.25
57 | LSAECMGLFL | -0.142
58 | LSAGSSDWADQPW | < -0.25
59 | LSAHPLGQEPGL | < -0.25
60 | LSAPQS | -0.245
61 | LSARPARAGGRRLIDENPTS | < -0.25
62 | LSASLRSLVYPPPIMCDVDP | < -0.25
63 | LSCEVDAQSLICKMVQLRKL | < -0.25
64 | LSCNLRHRKTSNFAPERACP | < -0.25
65 | LSD | < -0.25
66 | LSECNGSWSGK | < -0.25
67 | LSEPVATEGVRYA | < -0.25
68 | LSERE | < -0.25
69 | LSGGASVDSQSHRRSMAFRA | < -0.25
70 | LSGGREVRLLDQYCCEV | < -0.25
71 | LSGPRFQLLGCVYAPFDHEV | < -0.25
72 | LSGTYPSGVEEMGTTWRKLD | < -0.25
73 | LSGVIRRSLHLILGYLDVPC | < -0.25
74 | LSGVVLAGLRGRALF | < -0.25
75 | LSHFKKAELRDEVLHIRE | < -0.25

Row | Substance | growth estimate
76 | LSIMCRFGLRAR | < -0.25
77 | LSISESRVCRGHSVSTTPSL | < -0.25
78 | LSITFFVHNSYILRLVRCLL | < -0.25
79 | LSITSLAV | < -0.25
80 | LSIVNPKQDGVWPRLRRSDS | < -0.25
81 | LSKGRAIENVAREKYQYLSG | < -0.25
82 | LSLASSLMV | < -0.25
83 | LSLDSGRIIPNDGL | < -0.25
84 | LSLSGYVETVCADLKHQVDR | < -0.25
85 | LSLVMSDRLAERKAACRRPR | < -0.25
86 | LSLVSMNFSDLILRLWVVRH | < -0.25
87 | LSLYRPAAPNFGR | < -0.25
88 | LSMGTMHGC | < -0.25
89 | LSMPSAVPKQGTVHRVHVVA | < -0.25
90 | LSNLVKSLASADLKALSCRS | < -0.25
91 | LSPSNTIAG | < -0.25
92 | LSPSRLFS | < -0.25
93 | LSQD | < -0.25
94 | LSQWVWLVSLTR | < -0.25
95 | LSRDENCLQQWGDRSTATGR | < -0.25
96 | LSREPRAPPEETRVMGFLAG | < -0.25
97 | LSRGAARLKLVAH | < -0.25
98 | LSSA | < -0.25
99 | LSSAE | < -0.25
100 | LSSESG | < -0.25

5 entries picked at random from those above:
Row | Substance | growth estimate
15 | LRLWFDPFFYS | -0.102
29 | LRRNRYTIKSKFTQPSE | < -0.25
32 | LRRVENASYRNSRYARALWI | < -0.25
100 | LSSESG | < -0.25
86 | LSLVSMNFSDLILRLWVVRH | < -0.25
